From paper PMC5141385, “Small heat shock proteins sequester misfolding proteins in near-native conformation for cellular protection and efficient refolding” (Nature Communications, 2016)
No constants are given. Whether binding was seen depends on the method and setting. Some binding calls cover weakened binding; strength is not graded here. Sequences can lack the tags named with a protein.

Target: T1, MDH–YFP (UniProt P00346)
T1 sequence: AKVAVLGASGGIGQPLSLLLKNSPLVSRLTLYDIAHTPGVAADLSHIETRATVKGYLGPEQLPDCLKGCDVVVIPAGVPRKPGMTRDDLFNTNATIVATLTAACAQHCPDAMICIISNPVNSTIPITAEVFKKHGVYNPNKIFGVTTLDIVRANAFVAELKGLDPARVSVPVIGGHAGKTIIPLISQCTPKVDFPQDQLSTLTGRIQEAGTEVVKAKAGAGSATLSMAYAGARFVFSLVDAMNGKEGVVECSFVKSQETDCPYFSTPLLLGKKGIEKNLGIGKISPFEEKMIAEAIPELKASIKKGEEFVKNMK
Test: FRET or BRET; MDH–YFP and coumarin-labelled MDH (each 0.25 μM) mixed in preheated buffer C at 47 °C (heat-induced co-aggregation); signal at 527 nm; with or without Hsp26 or Hsp42; both purified

Molecule: Hsp42 (from UniProt Q12329 1-375)
- binding: binds

B1: Hsp26 (natural protein, S. cerevisiae, UniProt P15992 1-214, looked up)
chain: MSFNSPFFDFFDNINNEVDAFNRLLGEGGLRGYAPRRQLANTPAKDSTGKEVARPNNYAGALYDPRDETLDDWFDNDLSLFPSGFGFPRSVAVPVDILDHDNNYELKVVVPGVKSKKDIDIEYHQNKNQILVSGEIPSTLNEESKDKVKVKESSSGKFKRVITLPDYPGVDADNIKADYANGVLTLTVPKLKPQKDGKNHVKKIEVSSQESWGN
notes: Hsp26, small heat shock protein of S. cerevisiae; also called sHsp; small heat shock protein Hsp26; source: E. coli (derivative of MC4100), solubilised from the pellet in 8 M urea, purified (Ni-IDA, Sephacryl S-300); not shown: His6-Smt3, N-terminal, cleaved
- binding: binds
